Measurements from patent publication US4908364A, “Substituted 3-phenyl-7H-thiazol[3,2-b][1,2,4]-triazin-7-ones” (Hoechst Aktiengesellschaft, priority 1987, dated 1990).

How the values were obtained:
in vivo = conditions: mouse, ip, LD50 (mice i.p.) / ED50 (adjuvant arthritis), read-out: therapeutic range, quotient LD50/ED50
Method: The LD50 values were determined by a standard method from the mortality occurring within 7 days in NMRI (Naval Medical Research Institute) mice (6 animals per dose) after a single intraperitoneal (i.p.) administration.

[1] = Acute gastral ulcerogenity; parameters: species or system male Sprague-Dawley rats; conditions: rat, in vivo, po
Method: The investigation took place in each case on 10 male Sprague-Dawley rats in which the gastric mucous membrane had been sensitized by hunger stress. The body weight of the animals was between 200 and 300 g. While allowing free access to the drinking water, the feed was withdrawn 48 hours before administration of the test preparations until sacrifice of the animals. The rats were sacrificed 24 hours after oral administration of the substance, and the stomachs were removed, cleaned under running water and inspected for mucous membrane lesions. All macroscopically visible lesions were regarded as ulcers. The number of animals having ulcers was determined for each dose, and the UD50 values, i.e. the doses at which lesions were caused in 50% of the animals, were calculated from this number by the method of Litchfield and Wilcoxon (J. Pharmacol. Exp. Ther. 96 (1949) p. 99).

## COc1ccc2cc(C(C)C(=O)O)ccc2c1 (centres unmarked) [Naproxen, 2-(6-methoxy-2-naphthyl)-propionic acid, reference compound]
In vivo
  selectivity ratio: 28.6
[1]
  selectivity ratio: 1.3
